Source: the supplement of paper PMC10849652
The list shows a part of the results.

The chains behind the UniProt entries cited, without tags or fusion partners. Where a name states a change or a piece, a line headed by the entry shows the natural chain unless it says otherwise.
UniProt Q9BU64: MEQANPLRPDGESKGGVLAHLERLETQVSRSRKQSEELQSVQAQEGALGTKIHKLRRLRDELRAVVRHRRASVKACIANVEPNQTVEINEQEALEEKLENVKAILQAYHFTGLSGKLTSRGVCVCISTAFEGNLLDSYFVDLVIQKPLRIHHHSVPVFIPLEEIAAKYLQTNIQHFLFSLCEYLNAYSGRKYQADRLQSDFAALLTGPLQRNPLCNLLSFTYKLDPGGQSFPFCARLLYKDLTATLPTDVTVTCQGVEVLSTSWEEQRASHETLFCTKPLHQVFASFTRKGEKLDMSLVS
UniProt A8MT69: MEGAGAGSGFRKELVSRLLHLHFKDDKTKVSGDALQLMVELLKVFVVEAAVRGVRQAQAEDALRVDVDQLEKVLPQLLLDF
UniProt Q9NSP4: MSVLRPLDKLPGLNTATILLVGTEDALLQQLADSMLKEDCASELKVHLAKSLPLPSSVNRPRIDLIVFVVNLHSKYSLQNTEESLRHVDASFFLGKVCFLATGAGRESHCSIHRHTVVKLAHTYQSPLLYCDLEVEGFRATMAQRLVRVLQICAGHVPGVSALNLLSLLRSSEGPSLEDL
UniProt Q5SW79: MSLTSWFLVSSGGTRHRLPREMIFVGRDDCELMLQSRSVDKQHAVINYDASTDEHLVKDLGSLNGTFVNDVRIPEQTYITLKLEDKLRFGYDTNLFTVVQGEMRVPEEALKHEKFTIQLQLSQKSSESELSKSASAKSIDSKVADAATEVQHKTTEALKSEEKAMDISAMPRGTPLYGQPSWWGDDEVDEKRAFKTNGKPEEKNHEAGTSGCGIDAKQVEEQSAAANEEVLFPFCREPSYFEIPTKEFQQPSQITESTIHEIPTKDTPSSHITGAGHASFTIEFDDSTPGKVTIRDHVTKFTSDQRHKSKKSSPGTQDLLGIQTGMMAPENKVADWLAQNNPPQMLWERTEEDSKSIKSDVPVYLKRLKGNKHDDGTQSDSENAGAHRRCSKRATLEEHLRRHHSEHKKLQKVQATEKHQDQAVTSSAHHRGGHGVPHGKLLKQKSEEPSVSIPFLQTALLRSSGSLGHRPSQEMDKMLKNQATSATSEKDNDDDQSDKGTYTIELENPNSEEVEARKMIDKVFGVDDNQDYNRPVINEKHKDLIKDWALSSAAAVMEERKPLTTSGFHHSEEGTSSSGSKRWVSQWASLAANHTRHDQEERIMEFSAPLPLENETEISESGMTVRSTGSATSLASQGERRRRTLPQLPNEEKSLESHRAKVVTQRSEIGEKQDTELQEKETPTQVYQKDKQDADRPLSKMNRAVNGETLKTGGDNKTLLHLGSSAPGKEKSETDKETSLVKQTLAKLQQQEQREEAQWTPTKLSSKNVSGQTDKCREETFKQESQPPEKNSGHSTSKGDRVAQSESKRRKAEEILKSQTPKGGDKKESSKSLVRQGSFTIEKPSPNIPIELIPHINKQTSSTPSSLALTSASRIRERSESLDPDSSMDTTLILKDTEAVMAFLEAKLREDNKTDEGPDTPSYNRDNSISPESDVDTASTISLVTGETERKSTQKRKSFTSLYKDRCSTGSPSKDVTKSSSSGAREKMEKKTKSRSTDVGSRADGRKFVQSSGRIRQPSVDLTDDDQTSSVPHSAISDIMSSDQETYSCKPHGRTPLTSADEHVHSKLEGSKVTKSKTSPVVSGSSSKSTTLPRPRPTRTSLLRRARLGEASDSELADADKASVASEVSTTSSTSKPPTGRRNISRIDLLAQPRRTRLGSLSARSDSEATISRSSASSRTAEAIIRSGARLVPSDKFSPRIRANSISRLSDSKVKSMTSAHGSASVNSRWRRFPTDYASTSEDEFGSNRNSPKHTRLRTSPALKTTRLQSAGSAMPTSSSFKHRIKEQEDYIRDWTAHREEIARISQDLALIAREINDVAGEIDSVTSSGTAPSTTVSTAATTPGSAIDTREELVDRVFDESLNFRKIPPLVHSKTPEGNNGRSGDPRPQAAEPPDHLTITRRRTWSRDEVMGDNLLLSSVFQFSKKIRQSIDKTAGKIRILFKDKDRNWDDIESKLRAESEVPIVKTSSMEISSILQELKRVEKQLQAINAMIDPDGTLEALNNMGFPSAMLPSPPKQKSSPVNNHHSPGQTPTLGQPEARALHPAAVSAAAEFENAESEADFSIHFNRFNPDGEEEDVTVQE
UniProt Q5JTW2: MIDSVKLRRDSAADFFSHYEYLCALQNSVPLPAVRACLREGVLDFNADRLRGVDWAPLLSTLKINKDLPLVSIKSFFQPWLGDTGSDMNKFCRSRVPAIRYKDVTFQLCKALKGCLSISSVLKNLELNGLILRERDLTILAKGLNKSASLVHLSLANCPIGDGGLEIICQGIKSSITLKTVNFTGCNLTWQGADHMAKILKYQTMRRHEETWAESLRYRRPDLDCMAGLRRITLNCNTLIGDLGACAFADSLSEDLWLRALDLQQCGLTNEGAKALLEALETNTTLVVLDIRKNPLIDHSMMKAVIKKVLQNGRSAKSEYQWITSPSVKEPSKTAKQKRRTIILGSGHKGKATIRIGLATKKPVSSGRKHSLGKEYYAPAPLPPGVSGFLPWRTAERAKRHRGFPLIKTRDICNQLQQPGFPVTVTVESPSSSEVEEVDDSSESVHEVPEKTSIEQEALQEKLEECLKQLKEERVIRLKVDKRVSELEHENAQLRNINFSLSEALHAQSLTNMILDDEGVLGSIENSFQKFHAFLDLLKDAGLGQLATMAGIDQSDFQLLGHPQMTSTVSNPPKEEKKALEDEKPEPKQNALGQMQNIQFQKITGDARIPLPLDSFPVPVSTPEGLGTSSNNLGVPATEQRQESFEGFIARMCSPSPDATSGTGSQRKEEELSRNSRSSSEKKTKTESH
UniProt Q86XR8: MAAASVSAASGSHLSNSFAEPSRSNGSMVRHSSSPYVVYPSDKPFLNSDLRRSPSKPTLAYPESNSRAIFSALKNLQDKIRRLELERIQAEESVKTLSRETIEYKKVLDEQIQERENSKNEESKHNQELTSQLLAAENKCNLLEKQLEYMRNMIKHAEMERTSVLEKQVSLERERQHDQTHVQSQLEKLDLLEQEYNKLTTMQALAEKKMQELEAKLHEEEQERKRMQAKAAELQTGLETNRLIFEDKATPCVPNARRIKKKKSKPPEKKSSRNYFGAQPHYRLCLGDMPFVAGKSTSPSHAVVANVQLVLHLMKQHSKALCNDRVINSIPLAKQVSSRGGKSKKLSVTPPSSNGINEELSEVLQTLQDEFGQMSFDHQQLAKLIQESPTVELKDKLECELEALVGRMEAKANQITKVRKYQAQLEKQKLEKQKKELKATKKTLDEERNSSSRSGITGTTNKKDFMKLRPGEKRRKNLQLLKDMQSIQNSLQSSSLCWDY
UniProt Q49AH0, whole entry, looked up: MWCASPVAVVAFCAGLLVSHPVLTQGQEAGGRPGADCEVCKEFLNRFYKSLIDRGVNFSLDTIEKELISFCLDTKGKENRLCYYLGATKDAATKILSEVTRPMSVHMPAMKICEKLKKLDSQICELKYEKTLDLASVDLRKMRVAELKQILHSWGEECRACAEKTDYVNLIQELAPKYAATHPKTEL
UniProt Q96BT3, whole entry, looked up: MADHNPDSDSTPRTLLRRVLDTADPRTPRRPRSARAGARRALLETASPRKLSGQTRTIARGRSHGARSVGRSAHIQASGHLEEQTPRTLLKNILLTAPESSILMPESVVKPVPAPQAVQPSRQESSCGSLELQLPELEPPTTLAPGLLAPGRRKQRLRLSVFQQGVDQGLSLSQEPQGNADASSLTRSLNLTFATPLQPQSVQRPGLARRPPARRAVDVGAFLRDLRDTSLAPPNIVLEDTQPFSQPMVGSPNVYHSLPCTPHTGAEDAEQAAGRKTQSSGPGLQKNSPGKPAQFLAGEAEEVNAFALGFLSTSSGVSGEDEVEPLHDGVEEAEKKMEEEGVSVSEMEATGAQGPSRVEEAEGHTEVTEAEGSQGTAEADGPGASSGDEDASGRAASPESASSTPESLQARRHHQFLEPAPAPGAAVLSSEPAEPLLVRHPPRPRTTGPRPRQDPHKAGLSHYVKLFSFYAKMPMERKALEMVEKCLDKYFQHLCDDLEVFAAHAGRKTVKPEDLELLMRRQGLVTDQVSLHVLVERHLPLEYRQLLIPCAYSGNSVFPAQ
UniProt P30304: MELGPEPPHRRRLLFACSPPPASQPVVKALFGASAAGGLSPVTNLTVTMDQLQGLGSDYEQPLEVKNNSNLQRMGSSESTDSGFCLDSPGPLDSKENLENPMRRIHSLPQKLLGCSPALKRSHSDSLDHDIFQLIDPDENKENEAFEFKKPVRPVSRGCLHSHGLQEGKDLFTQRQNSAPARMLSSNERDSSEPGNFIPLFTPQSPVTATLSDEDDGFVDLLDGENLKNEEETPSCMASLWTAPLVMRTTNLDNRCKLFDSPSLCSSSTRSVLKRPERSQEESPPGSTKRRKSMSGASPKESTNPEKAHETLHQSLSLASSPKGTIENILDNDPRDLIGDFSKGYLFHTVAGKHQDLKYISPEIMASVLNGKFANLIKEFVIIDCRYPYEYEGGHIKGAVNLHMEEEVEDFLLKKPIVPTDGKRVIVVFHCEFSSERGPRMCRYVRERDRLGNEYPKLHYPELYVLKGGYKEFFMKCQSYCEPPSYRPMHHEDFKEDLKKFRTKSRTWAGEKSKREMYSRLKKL
UniProt Q9H211: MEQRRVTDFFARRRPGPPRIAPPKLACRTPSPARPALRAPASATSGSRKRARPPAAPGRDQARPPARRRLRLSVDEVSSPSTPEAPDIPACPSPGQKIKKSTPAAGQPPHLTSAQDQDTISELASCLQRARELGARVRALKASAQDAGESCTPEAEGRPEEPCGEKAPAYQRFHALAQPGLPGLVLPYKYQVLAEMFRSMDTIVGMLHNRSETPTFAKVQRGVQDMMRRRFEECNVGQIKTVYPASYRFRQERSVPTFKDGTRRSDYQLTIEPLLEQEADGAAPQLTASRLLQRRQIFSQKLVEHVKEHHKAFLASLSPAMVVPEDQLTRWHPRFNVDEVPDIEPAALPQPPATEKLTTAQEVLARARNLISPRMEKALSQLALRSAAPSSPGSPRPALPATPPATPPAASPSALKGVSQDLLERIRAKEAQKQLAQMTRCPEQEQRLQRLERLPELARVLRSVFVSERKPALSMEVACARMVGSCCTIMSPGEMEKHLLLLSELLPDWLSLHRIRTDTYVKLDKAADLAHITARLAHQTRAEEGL
UniProt Q76N32: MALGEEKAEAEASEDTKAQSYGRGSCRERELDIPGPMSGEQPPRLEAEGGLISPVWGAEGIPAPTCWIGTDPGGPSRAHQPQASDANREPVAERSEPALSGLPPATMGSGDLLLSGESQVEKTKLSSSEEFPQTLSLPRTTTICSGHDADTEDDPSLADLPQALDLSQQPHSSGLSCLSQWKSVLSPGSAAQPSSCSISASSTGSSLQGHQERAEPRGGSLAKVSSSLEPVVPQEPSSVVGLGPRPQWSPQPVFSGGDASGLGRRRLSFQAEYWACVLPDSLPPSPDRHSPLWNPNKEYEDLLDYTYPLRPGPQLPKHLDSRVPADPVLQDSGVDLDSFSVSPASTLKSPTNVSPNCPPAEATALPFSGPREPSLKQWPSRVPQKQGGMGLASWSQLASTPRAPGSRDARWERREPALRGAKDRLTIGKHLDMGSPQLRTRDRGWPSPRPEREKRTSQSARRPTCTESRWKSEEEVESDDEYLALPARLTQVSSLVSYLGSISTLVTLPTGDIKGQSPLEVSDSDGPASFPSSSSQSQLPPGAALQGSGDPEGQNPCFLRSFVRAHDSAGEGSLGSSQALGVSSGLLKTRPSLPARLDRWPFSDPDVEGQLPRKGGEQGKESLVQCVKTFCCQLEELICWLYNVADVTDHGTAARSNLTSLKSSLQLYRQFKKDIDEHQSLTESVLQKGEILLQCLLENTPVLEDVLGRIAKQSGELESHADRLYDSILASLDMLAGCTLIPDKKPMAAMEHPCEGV
UniProt P53567: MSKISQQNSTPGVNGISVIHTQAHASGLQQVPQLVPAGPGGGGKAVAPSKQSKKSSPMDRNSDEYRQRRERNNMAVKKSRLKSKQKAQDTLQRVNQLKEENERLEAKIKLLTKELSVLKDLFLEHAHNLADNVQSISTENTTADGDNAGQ
UniProt Q9BWV3: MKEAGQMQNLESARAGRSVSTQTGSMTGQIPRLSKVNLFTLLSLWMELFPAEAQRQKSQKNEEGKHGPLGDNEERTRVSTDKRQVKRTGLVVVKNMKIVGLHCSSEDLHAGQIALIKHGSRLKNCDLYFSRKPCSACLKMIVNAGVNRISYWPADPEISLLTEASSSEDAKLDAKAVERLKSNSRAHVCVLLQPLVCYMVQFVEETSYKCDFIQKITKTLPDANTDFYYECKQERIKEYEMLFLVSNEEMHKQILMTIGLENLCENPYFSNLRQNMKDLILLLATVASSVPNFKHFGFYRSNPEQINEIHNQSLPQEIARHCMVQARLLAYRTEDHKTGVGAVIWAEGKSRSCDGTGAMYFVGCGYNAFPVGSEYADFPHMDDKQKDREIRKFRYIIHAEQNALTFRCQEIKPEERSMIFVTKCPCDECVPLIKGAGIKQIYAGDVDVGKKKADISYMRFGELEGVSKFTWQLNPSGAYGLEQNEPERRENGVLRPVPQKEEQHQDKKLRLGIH

How the values were obtained:
Assay in all cases: log2 fold change, soluble protein after heating vs DMSO (PISA); higher = thermal stabilisation; K562 lysate, 10 uM; active = over 0.2 and 3.5 SD of the protein, either way, in both replicates (recomputed)
[1] = compound: CC[C@@H]1C(=O)N(C)c2cnc(Nc3ccc(C(=O)NC4CCN(C)CC4)cc3OC)nc2N1C1CCCC1
How it was run: (§1)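 Pellets of K562 cells were dounce-homogenised in PBS pH 7.4 with 1 mM MgCl2, and the crude extract was held at 1 mg/mL protein for a 30 min treatment with 10 μM compound. Aliquots were heated for 3 min over 48°C-58°C and pooled before NP-40 was added to 0.5% at 4°C. The supernatant from 21,000xg for 90 min was quantified by TMTpro 16plex LC-MS/MS with channel sums equalised. Values are reported from duplicates as log-two fold change in thermal stability relative to solvent controls.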

[2] = compound: CCn1c(C(=O)N(C2CC2)C2CC2)cc2c3c(ncn3C)c(Nc3cc(C)n(C)n3)nc21
How it was run: as §1

[3] = compound: CCn1cc(-c2ccnc3[nH]c(-c4cccc(CN(C)C)c4)cc23)c(-c2ccc(NC(=O)N(C)C)cc2)n1
How it was run: as §1

[4] = compound: CN1CCC(CNc2ccc3ncc(-c4cccc(OC(F)(F)F)c4)n3n2)CC1
How it was run: as §1

[5] = compound: CN1CCN(CCOc2cc(OC3CCOCC3)c3c(Nc4c(Cl)ccc5c4OCO5)ncnc3c2)CC1 [saracatinib]
How it was run: as §1

[6] = compound: CN1CC[C@H](c2c(O)cc(O)c3c(=O)cc(-c4ccccc4Cl)oc23)[C@H](O)C1 [alvocidib]
How it was run: as §1

[7] = compound: CN1CCc2c(c3ccccc3n2Cc2ccc(C(=O)NO)cc2)C1 [Tubastatin A]
How it was run: as §1

[8] = compound: CNC(=O)C1=CC=CC=C1NC2=NC(=NC=C2Cl)NC3=C(C=C(C=C3)N4CCOCC4)OC
How it was run: as §1

[9] = compound: CNc1nc(-c2ccc3c(N)n[nH]c3c2)cc(N2C[C@@H](C(=O)NC3CCCCC3)CC[C@H]2C)n1
How it was run: as §1

[10] = compound: COC(=O)N[C@@H](C)CNc1nccc(-c2cn(C(C)C)nc2-c2cc(Cl)cc(NS(C)(=O)=O)c2F)n1 [encorafenib]
How it was run: as §1

[11] = compound: COC(=O)[C@H](CCSC)NC(=O)C1=C(C=C(C=C1)NC[C@H](CS)N)C2=CC=CC=C2
How it was run: as §1

[12] = compound: COc1cc(Nc2ncc3c(n2)-c2ccc(Cl)cc2C(c2c(F)cccc2OC)=NC3)ccc1C(=O)O [alisertib]
How it was run: as §1

[13] = compound: COc1cc2ncnc(Nc3ccc(F)c(Cl)c3)c2cc1OCCCN1CCOCC1 [gefitinib]
How it was run: as §1

[14] = compound: CN1CCN(c2nc(C3=C(c4c[nH]c5ccccc45)C(=O)NC3=O)c3ccccc3n2)CC1 [sotrastaurin]
How it was run: as §1

[15] = compound: CCN(CCCOc1ccc2c(Nc3cc(CC(=O)Nc4cccc(F)c4)[nH]n3)ncnc2c1)CCOP(=O)(O)O [barasertib]
How it was run: as §1

[16] = compound: CCCS(=O)(=O)Nc1ccc(F)c(C(=O)c2c[nH]c3ncc(Cl)cc23)c1F
How it was run: as §1

[17] = compound: CC[C@@H]1C(=O)N(C)c2cnc(Nc3ccc(C(=O)N[C@H]4CC[C@H](N5CCN(CC6CC6)CC5)CC4)cc3OC)nc2N1C(C)C [volasertib]
How it was run: as §1

[18] = compound: COc1cc2nc(-c3cc(F)ccc3O)nc(N[C@@H]3CNC[C@H]3C(C)(C)O)c2cc1OC
How it was run: as §1

Measured: log2 fold change

CENPC (UniProt Q03188)
inactive: [1] 0.011 | [2] 0.096 | [3] 0.177 | [4] 0.033 | [5] 0.087 | [6] 0 | [7] 0.1 | [8] 0.054 | [9] -0.002 | [10] -0.078 | [11] -0.115

CENPO (UniProt Q9BU64)
inactive: [3] -0.122 | [4] 0.084 | [6] -0.014 | [8] 0.112 | [12] -0.066 | [13] 0.161

CENPX (UniProt A8MT69)
inactive: [2] 0.417 | [14] -0.001 | [7] 0.09

CENPM (UniProt Q9NSP4)
inactive: [15] -0.04 | [1] 0.116 | [2] 0.046 | [3] 0.052 | [4] 0.037 | [5] -0.063 | [14] -0.225 | [6] -0.1 | [7] 0.029 | [8] 0.04 | [9] 0.199 | [10] -0.128 | [11] 0.105 | [12] -0.133 | [13] -0.057

CEP170 isoform 2 (UniProt Q5SW79)
inactive: [1] -0.06 | [3] 0.126 | [4] -0.213 | [5] 0.11 | [6] -0.07 | [9] 0.171 | [10] -0.08 | [11] 0.1

CDC14A isoform 2 (UniProt Q9UNH5)
inactive: [16] -0.271 | [17] 0.085 | [2] 0.101 | [14] 0.058 | [7] 0.272 | [12] 0.075 | [18] 0.019 | [13] 0.078

CEP162 (UniProt Q5TB80)
inactive: [14] -0.002

CEP78 isoform 2 (UniProt Q5JTW2)
inactive: [5] 0.05 | [14] 0.062 | [8] -0.001 | [9] 0.303

Taken from above (2 entries):
CENPO (UniProt Q9BU64)
inactive: [3] -0.122 | [4] 0.084 | [6] -0.014 | [8] 0.112 | [12] -0.066 | [13] 0.161

CENPX (UniProt A8MT69)
inactive: [2] 0.417 | [14] -0.001 | [7] 0.09

Further entries follow.

CEP104 (UniProt O60308)
inactive: [2] 0.081 | [7] -0.026

CDC27 (UniProt G5EA36)
inactive: [16] -0.225 | [15] -0.073 | [17] 0.124 | [2] 0.037 | [3] 0.002 | [4] -0.109 | [5] 0.004 | [14] -0.027 | [6] 0.013 | [7] -0.018 | [8] 0.019 | [9] -0.089 | [12] -0.056 | [18] 0.064 | [13] -0.168

CEP57L1 (UniProt Q8IYX8)
inactive: [15] -0.06 | [1] 0.227 | [2] 0.044 | [3] -0.028 | [4] -0.066 | [5] -0.065 | [14] -0.007 | [6] -0.024 | [7] -0.143 | [8] 0.141 | [9] -0.09 | [10] 0.118 | [11] -0.023 | [12] -0.003 | [13] -0.038

CDAN1 (UniProt H3BPZ6)
inactive: [14] 0.175

CEP57 (UniProt Q86XR8)
inactive: [1] 0.129 | [3] 0.009 | [4] 0.044 | [6] 0.118 | [8] -0.299 | [10] 0.16 | [11] 0.05

CDNF (UniProt Q49AH0)
inactive: [16] 0.179 | [1] 0.062 | [17] 0.022 | [14] -0.106 | [10] 0.035 | [11] -0.197 | [18] 0

CEP72 (UniProt Q9P209)
inactive: [2] 0.049 | [5] -0.097 | [7] -0.017 | [8] -0.092 | [9] 0.086

CENPT (UniProt Q96BT3)
inactive: [8] 0.21

CDC25A (UniProt P30304)
inactive: [16] 0.038 | [17] -0.053 | [2] 0.033 | [5] -0.022 | [14] 0.092 | [8] -0.121 | [9] 0.035 | [12] 0.005 | [18] 0.019 | [13] -0.002
active: [7] -0.406

CDT1 (UniProt Q9H211)
inactive: [15] 0.019 | [1] 0.153 | [2] -0.059 | [3] -0.004 | [4] 0.034 | [5] 0.034 | [14] -0.042 | [6] 0.016 | [7] -0.072 | [8] 0.044 | [9] 0.028 | [10] 0.112 | [11] -0.055

CEP68 (UniProt Q76N32)
inactive: [1] -0.034 | [5] 0.026 | [8] -0.024 | [9] 0.032 | [10] 0.052 | [11] -0.01

CD84 (UniProt Q9UIB8)
inactive: [15] -0.032 | [3] -0.153 | [4] -0.046 | [6] 0.042

CDPF1 (UniProt Q6NVV7)
inactive: [2] -0.029 | [14] -0.028 | [7] -0.18

CDKN3 (UniProt Q16667)
inactive: [15] 0.119 | [1] -0.053 | [3] -0.05 | [4] 0.038 | [6] 0.001 | [10] -0.084 | [11] 0.044

CFL1 (UniProt E9PQB7)
inactive: [14] -0.013

CEBPG (UniProt P53567)
inactive: [16] 0.149 | [15] -0.065 | [17] -0.04 | [2] -0.077 | [3] -0.162 | [4] 0.021 | [14] -0.05 | [6] 0.117 | [7] -0.049 | [18] 0.033

CDC42SE1 (UniProt Q9NRR8)
inactive: [16] 0 | [15] -0.418 | [17] 0.178 | [3] -0.283 | [4] -0.14 | [14] -0.076 | [6] 0.156 | [12] -0.088 | [18] -0.437 | [13] -0.116

CDADC1 (UniProt Q9BWV3)
inactive: [14] 0.082

CEP164 (UniProt Q9UPV0)
inactive: [16] 0.052 | [15] 0.102 | [17] -0.002 | [8] 0.138 | [18] 0.067

CENPB (UniProt P07199)
inactive: [1] -0.043 | [10] -0.094 | [11] 0.01
